Experimental data taken from the supplement of paper PMC6411743.
± gives the standard deviation of the averaged measurements. The entries are a selection whose mix differs from that of the whole data set.

Chains of the proteins cited; added tags and fusions are not shown. Lines headed by an entry give the natural chain unless they say otherwise; changes in a name come on top.
UniProt P11586, whole entry: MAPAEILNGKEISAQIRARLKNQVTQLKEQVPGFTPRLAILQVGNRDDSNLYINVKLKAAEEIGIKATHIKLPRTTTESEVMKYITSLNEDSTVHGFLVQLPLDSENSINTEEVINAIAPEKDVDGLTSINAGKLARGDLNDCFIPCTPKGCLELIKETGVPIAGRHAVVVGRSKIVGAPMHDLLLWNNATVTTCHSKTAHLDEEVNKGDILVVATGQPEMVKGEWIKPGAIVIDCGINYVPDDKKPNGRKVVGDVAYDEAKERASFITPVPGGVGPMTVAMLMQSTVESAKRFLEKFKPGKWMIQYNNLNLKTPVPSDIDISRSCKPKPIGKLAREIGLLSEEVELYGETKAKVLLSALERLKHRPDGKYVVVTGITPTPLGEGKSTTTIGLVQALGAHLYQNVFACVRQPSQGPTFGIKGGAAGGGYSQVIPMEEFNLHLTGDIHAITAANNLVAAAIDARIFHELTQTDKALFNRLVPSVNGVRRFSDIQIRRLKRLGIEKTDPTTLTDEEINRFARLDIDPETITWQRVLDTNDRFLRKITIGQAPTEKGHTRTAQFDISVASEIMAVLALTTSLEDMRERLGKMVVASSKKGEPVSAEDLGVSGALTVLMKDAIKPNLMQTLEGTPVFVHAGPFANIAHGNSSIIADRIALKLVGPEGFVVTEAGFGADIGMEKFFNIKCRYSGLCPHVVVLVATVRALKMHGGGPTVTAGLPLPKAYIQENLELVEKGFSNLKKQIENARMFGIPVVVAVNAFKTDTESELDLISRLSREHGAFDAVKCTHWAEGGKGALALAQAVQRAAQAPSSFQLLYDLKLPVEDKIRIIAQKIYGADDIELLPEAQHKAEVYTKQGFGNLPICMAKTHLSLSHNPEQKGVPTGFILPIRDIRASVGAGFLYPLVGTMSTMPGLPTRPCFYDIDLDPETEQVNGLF
UniProt P02786, whole entry, looked up: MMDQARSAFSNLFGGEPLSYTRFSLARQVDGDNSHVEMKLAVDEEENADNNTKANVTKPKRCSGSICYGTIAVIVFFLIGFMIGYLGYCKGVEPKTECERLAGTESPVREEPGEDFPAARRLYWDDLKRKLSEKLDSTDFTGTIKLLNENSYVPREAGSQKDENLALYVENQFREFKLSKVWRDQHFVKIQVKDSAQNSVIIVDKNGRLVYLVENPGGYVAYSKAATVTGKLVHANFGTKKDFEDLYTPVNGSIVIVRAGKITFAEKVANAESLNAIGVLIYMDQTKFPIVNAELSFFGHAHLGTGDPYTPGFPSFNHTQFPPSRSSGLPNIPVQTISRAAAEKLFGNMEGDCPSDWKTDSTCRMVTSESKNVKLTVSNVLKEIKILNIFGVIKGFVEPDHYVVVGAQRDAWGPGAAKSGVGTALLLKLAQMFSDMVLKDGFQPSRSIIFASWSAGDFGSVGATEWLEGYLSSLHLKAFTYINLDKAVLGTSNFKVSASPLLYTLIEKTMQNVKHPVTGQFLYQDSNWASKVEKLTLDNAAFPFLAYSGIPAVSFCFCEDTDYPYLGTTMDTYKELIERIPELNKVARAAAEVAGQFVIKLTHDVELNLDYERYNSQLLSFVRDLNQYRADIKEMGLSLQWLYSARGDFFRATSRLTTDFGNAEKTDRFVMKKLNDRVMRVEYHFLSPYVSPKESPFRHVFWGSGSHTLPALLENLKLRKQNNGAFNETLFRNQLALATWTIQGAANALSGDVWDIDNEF
UniProt O95825: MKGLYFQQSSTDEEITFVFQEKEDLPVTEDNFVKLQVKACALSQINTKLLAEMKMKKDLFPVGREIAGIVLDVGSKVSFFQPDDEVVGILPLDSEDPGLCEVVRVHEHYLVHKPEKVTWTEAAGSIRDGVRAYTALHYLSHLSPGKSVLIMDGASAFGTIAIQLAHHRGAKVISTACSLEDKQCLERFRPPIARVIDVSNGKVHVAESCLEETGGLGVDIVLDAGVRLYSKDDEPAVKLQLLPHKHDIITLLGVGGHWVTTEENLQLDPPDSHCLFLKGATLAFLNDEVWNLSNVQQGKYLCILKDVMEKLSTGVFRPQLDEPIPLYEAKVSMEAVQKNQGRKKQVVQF
UniProt P15531, whole entry, looked up: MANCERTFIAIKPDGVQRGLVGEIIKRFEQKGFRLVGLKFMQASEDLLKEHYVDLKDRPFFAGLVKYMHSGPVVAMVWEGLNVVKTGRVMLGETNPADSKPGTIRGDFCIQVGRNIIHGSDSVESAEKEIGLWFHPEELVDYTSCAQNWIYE
UniProt P00966: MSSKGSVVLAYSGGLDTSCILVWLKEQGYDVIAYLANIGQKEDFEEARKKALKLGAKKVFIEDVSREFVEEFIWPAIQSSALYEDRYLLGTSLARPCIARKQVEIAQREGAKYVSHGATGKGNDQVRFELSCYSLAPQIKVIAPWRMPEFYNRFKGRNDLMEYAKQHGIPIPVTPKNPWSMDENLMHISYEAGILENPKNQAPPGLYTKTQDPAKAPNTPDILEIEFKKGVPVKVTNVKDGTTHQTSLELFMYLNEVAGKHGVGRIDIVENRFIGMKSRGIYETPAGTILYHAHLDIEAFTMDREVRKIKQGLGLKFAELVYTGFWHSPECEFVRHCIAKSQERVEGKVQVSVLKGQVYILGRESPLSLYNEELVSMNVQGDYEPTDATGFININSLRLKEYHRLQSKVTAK
UniProt P08574: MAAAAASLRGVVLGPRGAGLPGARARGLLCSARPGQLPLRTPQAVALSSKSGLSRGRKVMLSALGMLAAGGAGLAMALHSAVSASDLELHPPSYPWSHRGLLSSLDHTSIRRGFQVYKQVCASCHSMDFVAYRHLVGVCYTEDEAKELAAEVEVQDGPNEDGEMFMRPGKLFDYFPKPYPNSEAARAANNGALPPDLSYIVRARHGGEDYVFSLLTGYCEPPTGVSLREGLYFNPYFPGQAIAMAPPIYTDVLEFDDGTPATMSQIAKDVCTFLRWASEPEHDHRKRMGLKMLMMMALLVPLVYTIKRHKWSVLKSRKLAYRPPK
UniProt P15814: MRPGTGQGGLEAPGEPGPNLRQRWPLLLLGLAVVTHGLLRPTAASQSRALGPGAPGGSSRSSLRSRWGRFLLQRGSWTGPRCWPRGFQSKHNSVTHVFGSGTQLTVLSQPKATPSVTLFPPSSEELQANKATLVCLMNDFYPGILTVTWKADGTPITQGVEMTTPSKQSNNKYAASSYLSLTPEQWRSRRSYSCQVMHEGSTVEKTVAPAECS
UniProt P04066: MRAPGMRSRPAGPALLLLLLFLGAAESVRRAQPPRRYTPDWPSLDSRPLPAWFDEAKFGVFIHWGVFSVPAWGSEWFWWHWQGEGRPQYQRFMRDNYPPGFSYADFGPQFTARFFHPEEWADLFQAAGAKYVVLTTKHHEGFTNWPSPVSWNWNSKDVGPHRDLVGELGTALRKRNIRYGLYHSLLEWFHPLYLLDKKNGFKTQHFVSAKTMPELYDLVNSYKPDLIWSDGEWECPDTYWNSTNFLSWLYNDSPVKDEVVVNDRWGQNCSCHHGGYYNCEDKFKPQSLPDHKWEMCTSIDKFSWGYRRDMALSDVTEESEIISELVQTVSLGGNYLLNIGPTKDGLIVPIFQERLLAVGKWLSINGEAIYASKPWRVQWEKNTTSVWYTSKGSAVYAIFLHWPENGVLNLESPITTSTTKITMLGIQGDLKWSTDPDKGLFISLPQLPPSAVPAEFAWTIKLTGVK
UniProt P10636, whole entry: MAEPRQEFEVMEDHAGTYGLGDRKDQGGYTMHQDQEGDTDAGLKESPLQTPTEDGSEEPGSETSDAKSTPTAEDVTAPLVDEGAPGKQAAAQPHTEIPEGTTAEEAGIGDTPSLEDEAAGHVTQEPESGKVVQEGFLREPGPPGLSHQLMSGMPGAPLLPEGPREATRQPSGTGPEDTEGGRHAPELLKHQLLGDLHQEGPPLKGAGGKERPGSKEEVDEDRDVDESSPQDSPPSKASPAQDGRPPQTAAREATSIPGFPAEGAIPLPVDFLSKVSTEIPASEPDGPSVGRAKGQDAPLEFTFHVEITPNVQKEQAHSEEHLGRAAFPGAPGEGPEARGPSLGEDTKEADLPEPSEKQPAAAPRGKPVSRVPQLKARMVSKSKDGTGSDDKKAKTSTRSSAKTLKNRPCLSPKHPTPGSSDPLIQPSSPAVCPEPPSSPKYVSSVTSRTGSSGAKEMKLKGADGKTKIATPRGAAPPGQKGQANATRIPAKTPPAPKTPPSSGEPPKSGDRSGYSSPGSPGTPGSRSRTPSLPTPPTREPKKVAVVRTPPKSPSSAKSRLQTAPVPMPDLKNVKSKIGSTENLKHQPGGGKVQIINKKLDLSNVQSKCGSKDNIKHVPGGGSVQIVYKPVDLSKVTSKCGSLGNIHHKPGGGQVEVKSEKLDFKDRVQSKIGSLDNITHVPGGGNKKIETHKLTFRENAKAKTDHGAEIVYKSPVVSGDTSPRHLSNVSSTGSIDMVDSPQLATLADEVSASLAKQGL
UniProt P09669, whole entry: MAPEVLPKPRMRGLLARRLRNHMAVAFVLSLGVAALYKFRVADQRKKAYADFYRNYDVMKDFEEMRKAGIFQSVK
UniProt P16455, whole entry: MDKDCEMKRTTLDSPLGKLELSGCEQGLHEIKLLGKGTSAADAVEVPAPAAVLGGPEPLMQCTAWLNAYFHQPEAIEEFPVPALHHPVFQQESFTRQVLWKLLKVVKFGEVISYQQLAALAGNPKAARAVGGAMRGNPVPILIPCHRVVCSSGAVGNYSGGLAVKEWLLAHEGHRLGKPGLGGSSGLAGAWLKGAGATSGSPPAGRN
UniProt P06126: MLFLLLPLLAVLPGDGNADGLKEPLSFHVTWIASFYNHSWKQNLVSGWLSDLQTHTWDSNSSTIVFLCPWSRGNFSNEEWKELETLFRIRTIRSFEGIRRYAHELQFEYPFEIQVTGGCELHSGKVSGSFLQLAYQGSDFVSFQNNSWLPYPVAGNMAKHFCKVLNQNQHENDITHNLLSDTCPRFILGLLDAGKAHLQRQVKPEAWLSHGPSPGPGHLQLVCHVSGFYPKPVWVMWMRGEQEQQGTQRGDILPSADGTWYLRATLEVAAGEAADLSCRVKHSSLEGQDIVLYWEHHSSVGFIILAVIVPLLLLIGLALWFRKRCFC
UniProt P14921: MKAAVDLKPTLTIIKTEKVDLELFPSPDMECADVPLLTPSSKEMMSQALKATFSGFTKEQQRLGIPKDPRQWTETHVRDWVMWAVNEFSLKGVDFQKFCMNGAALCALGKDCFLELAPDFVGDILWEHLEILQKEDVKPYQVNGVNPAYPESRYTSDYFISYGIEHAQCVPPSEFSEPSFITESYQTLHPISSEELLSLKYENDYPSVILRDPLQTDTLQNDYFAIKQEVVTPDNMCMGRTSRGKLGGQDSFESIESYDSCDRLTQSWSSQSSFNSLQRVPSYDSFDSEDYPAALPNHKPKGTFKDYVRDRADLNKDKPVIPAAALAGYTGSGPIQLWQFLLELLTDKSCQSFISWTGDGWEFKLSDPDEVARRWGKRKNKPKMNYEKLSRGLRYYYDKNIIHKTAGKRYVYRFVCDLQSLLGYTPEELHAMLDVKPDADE
UniProt P13796: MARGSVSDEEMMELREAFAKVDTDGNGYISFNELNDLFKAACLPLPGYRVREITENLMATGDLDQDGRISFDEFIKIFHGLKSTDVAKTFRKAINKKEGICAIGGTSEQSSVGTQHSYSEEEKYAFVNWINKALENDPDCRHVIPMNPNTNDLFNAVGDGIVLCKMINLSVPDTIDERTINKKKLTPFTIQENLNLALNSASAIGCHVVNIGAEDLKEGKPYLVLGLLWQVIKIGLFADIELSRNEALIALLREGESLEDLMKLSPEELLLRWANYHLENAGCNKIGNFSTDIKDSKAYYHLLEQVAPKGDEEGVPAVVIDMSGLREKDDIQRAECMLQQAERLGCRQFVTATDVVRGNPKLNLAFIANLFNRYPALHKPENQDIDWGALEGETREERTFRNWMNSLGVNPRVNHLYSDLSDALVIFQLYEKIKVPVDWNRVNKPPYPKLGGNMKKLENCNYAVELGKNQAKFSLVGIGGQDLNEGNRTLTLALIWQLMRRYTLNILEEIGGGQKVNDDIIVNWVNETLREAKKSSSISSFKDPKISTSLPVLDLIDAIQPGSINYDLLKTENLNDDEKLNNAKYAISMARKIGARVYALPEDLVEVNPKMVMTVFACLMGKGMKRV
UniProt P08397: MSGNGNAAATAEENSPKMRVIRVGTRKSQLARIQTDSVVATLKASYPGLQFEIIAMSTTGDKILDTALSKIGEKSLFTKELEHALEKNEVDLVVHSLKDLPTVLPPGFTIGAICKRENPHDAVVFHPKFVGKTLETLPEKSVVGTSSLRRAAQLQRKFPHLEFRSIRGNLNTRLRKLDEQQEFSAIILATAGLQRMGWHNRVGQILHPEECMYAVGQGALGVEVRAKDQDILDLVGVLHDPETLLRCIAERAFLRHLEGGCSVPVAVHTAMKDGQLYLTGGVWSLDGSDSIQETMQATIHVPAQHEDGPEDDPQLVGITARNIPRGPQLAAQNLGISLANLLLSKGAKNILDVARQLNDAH

Compound: Nc1ncnc2c1ncn2[C@@H]1O[C@H](COP(=O)(O)OP(=O)(O)OP(=O)(O)O)[C@@H](O)[C@H]1O [adenosine triphosphate]
Assay: NP40-soluble protein abundance relative to vehicle (solubility fold change) (ratio); higher = more soluble protein in presence of ATP
Procedure, shortened: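 Each value is a fold change relative to the detergent-processed vehicle, calculated per replicate from vsn-normalised intensities. Jurkat crude lysate received eight concentrations (0.1 to 10 mM) for 10 min at room temperature and 3 min at 37 °C, then was solubilised in 0.8% NP40 with benzonase (60 min, 4 °C). The ultracentrifuged supernatant was TMT-labelled and run by LC-MS/MS in three independent experiments.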

Target	NP40-soluble protein abundance (concentration: 1mM)	NP40-soluble protein abundance (concentration: 2mM)	NP40-soluble protein abundance (concentration: 4mM)	NP40-soluble protein abundance (concentration: 6mM)	NP40-soluble protein abundance (concentration: 8mM)	NP40-soluble protein abundance (concentration: 10mM)
UniProt P11171-2|P11171 and related entries	0.99 ± 0.01	0.98 ± 0.024	0.973 ± 0.023	0.992 ± 0.044	0.971 ± 0.033	0.967 ± 0.035
ATXN1L (UniProt P0C7T5)	0.953 ± 0.05	0.938 ± 0.04	0.969 ± 0.023	0.96 ± 0.0098	0.942 ± 0.064	0.9671 ± 0.0032
MTHFD1 (UniProt P11586)	1 ± 0.025	0.977 ± 0.029	0.957 ± 0.03	0.978 ± 0.058	0.989 ± 0.04	0.961 ± 0.038
TPR (UniProt P12270)	0.966 ± 0.057	0.967 ± 0.015	0.95 ± 0.023	1.02 ± 0.037	0.957 ± 0.024	0.97 ± 0.017
TFRC (UniProt P02786)	0.94 ± 0.025	0.949 ± 0.024	0.907 ± 0.018	0.917 ± 0.034	0.902 ± 0.024	0.928 ± 0.032
CRYZL1 (UniProt O95825)	1.04 ± 0.09	1.06 ± 0.078	1.03 ± 0.051	1.03 ± 0.097	1.06 ± 0.056	1.03 ± 0.071
CTSB (UniProt P07858)	0.969 ± 0.098	0.9589 ± 0.0095	0.948 ± 0.025	0.976 ± 0.034	0.944 ± 0.058	0.931 ± 0.024
ITGB1 (UniProt P05556)	0.935 ± 0.064	0.946 ± 0.025	0.923 ± 0.022	0.977 ± 0.067	0.913 ± 0.017	0.875 ± 0.035
P15531-2|P22392-2|Q32Q12 (UniProt Q32Q12+P22392+P15531)	0.945 ± 0.092	0.928 ± 0.058	0.897 ± 0.029	0.884 ± 0.073	0.901 ± 0.041	0.895 ± 0.052
ASS1 (UniProt P00966)	0.997 ± 0.091	1.01 ± 0.09	1.02 ± 0.08	0.963 ± 0.12	1.01 ± 0.062	0.998 ± 0.059
CYC1 (UniProt P08574)	0.988 ± 0.068	0.982 ± 0.048	0.941 ± 0.06	0.939 ± 0.065	0.967 ± 0.067	0.933 ± 0.024
UniProt P05023 and related entries	1 ± 0.029	0.97 ± 0.026	0.963 ± 0.022	1 ± 0.028	0.968 ± 0.03	0.949 ± 0.04
IGLL1 (UniProt P15814)	0.986 ± 0.087	0.98 ± 0.086	0.978 ± 0.042	0.965 ± 0.064	0.921 ± 0.033	0.95 ± 0.042
FUCA1 (UniProt P04066)	1.01 ± 0.085	1.06 ± 0.25	0.963 ± 0.12	0.918 ± 0.22	0.969 ± 0.093	0.961 ± 0.021
UniProt P10636-6|P10636-7	0.937 ± 0.083	0.956 ± 0.023	0.936 ± 0.053	0.961 ± 0.056	0.8917 ± 0.0047	0.855 ± 0.089
SSB (UniProt P05455)	0.88 ± 0.067	0.9378 ± 0.0091	0.881 ± 0.031	0.939 ± 0.089	0.887 ± 0.036	0.883 ± 0.066
CREB1 (UniProt P16220)	0.955 ± 0.062	0.944 ± 0.041	0.888 ± 0.024	0.936 ± 0.029	0.883 ± 0.033	0.86 ± 0.019
ETFA (UniProt P13804)	0.955 ± 0.013	0.944 ± 0.027	0.92 ± 0.025	0.95 ± 0.02	0.908 ± 0.035	0.922 ± 0.038
COX6C (UniProt P09669)	0.932 ± 0.087	0.822 ± 0.09	0.831 ± 0.12	0.808 ± 0.11	0.899 ± 0.015	0.748 ± 0.17
MGMT (UniProt P16455)	0.932 ± 0.075	0.943 ± 0.046	0.972 ± 0.045	0.934 ± 0.066	0.933 ± 0.04	0.897 ± 0.097
UniProt P06126	1.01 ± 0.013	1.03 ± 0.059	0.988 ± 0.034	0.963 ± 0.041	0.942 ± 0.03	0.936 ± 0.055
ETS1 (UniProt P14921)	0.911 ± 0.0097	0.886 ± 0.032	0.882 ± 0.02	0.8873 ± 0.0059	0.878 ± 0.037	0.876 ± 0.038
UniProt O95822 and related entries	1.07 ± 0.19	1.04 ± 0.15	1.09 ± 0.14	0.943 ± 0.14	1.03 ± 0.059	1.03 ± 0.089
NRAS (UniProt P01111)	1.03 ± 0.058	1.05 ± 0.033	1.06 ± 0.058	1.07 ± 0.034	1.03 ± 0.057	1.04 ± 0.03
ARSB (UniProt P15848)	0.91 ± 0.025	0.931 ± 0.088	0.931 ± 0.057	0.8991 ± 0.0078	0.861 ± 0.011	0.976 ± 0.041
EPRS (UniProt P07814)	1.04 ± 0.012	0.9662 ± 0.0063	0.93 ± 0.017	0.985 ± 0.16	0.997 ± 0.08	0.938 ± 0.064
LCP1 (UniProt P13796)	0.962 ± 0.048	0.931 ± 0.031	0.981 ± 0.094	0.854 ± 0.15	0.981 ± 0.077	0.792 ± 0.06
UniProt P16083 and related entries	0.957 ± 0.021	0.991 ± 0.029	0.977 ± 0.015	0.96 ± 0.043	0.97 ± 0.016	0.965 ± 0.026
HMBS (UniProt P08397)	0.961 ± 0.033	0.964 ± 0.039	0.94 ± 0.049	0.975 ± 0.039	0.929 ± 0.069	0.951 ± 0.059
UniProt P10398 and related entries	1.33 ± 0.088	1.36 ± 0.099	1.38 ± 0.11	1.38 ± 0.085	1.37 ± 0.12	1.41 ± 0.12

Single records, from the list above. Values in the order: NP40-soluble protein abundance (concentration: 1mM)	NP40-soluble protein abundance (concentration: 2mM)	NP40-soluble protein abundance (concentration: 4mM)	NP40-soluble protein abundance (concentration: 6mM)	NP40-soluble protein abundance (concentration: 8mM)	NP40-soluble protein abundance (concentration: 10mM)
EPRS (UniProt P07814) as listed: 1.04 ± 0.012	0.9662 ± 0.0063	0.93 ± 0.017	0.985 ± 0.16	0.997 ± 0.08	0.938 ± 0.064
TFRC (UniProt P02786) as listed: 0.94 ± 0.025	0.949 ± 0.024	0.907 ± 0.018	0.917 ± 0.034	0.902 ± 0.024	0.928 ± 0.032
